From paper PMC5838229
These are yes or no findings as the source states them, for the method shown. Binding seen in cells or lysates may run through a third protein. A result given as binding can be weak or reduced; the word gives no strength. Where a sequence is shown, tags or fusion partners need not be part of it.

B1: Flag-DNAJC5 (secreted) (protein, UniProt Q9H3Z4 1-198)
chain: MADQRQRSLSTSGESLYHVLGLDKNATSDDIKKSYRKLALKYHPDKNPDNPEAADKFKEINNAHAILTDATKRNIYDKYGSLGLYVAEQFGEENVNTYFVLSSWWAKALFVFCGLLTCCYCCCCLCCCFNCCCGKCKPKAPEGEETEFYVSPEDLEAQLQSDEREATDTPIVIQPASATETTQLTADSHPSYHTDGFN

What was measured:
[1] = biological target: T1, Flag-DNAJC5 (secreted) (UniProt Q9H3Z4); experiment: co-IP; conditioned medium of transfected 293T cells; IP with Flag antibodies (Flag-DNAJC5 omitted as negative control) or, reciprocally, with GFP antibody; immunoblotting
T1 sequence: B1 chain

[2] = biological target: HA-GFP1-10 (secreted); experiment: as above

Molecule	binding [1]	binding [2]
HA-GFP1-10 (secreted) (domain or fragment)	binds	
B1		binds
